19 molecules from PMC3525516 can be followed below.

By UniProt entry, the sequences of proteins in these tests, tags left out. Residues count along the entry.
UniProt Q01768: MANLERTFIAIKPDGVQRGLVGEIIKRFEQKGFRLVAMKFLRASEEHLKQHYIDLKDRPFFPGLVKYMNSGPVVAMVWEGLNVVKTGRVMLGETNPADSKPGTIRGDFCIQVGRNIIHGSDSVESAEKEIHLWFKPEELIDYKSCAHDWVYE
UniProt P26443, residues 54-558: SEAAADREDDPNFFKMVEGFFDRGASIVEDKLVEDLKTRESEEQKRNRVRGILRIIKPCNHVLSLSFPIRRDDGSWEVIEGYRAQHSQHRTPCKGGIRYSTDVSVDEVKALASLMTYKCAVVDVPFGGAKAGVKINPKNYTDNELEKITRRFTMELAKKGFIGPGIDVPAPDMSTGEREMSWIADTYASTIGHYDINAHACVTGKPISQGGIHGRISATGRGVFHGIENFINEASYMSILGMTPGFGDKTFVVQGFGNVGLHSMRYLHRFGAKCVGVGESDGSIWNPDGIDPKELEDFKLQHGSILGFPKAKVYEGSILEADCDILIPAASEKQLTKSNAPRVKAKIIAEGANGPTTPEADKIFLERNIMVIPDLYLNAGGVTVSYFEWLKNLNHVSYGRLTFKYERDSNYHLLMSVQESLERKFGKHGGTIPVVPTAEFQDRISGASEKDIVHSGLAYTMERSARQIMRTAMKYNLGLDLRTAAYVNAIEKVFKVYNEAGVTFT
UniProt Q80WE4: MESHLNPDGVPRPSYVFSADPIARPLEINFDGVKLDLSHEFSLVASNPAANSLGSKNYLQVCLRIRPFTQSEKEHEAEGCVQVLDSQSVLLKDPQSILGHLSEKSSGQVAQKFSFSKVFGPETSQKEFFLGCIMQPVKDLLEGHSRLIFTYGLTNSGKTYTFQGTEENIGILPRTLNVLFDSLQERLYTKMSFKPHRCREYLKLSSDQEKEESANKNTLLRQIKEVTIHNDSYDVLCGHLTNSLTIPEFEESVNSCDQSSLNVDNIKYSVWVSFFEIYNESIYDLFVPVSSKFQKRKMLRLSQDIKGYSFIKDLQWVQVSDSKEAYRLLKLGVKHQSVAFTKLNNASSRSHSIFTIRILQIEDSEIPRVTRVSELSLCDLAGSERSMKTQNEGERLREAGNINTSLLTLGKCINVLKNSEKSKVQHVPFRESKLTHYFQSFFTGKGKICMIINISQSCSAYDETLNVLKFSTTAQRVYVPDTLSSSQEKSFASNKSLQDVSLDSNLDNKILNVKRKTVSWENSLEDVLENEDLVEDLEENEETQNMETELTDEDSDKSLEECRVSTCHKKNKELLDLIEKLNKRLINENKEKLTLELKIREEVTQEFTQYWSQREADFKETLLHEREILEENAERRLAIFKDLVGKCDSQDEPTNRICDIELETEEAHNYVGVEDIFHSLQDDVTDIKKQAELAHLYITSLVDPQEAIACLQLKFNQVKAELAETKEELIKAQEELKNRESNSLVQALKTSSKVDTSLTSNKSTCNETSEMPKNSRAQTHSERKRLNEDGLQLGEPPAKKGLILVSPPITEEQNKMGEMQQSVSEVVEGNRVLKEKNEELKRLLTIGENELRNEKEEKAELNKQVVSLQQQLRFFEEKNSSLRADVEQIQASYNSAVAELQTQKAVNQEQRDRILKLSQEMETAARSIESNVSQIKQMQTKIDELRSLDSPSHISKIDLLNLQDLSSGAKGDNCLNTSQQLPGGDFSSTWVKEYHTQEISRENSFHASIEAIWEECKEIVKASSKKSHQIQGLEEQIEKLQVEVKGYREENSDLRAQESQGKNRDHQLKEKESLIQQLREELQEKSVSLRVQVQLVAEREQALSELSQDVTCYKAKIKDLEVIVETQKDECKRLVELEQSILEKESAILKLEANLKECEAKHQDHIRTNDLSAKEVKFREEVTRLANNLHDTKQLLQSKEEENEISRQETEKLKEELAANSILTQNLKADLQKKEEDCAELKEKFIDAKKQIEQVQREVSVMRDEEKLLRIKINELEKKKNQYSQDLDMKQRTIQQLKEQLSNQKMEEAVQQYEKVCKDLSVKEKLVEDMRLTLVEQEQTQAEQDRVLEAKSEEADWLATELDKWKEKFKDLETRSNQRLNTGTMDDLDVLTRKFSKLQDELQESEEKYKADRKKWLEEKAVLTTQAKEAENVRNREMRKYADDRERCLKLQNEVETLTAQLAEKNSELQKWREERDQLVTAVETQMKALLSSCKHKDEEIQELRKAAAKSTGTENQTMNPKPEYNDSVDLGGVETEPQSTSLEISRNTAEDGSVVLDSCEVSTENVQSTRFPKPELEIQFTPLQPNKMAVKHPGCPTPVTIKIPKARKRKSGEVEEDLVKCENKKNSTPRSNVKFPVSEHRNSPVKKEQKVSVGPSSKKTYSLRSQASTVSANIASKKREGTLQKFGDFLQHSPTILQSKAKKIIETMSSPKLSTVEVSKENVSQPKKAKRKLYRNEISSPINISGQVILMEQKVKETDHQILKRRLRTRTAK
UniProt A2ABU4: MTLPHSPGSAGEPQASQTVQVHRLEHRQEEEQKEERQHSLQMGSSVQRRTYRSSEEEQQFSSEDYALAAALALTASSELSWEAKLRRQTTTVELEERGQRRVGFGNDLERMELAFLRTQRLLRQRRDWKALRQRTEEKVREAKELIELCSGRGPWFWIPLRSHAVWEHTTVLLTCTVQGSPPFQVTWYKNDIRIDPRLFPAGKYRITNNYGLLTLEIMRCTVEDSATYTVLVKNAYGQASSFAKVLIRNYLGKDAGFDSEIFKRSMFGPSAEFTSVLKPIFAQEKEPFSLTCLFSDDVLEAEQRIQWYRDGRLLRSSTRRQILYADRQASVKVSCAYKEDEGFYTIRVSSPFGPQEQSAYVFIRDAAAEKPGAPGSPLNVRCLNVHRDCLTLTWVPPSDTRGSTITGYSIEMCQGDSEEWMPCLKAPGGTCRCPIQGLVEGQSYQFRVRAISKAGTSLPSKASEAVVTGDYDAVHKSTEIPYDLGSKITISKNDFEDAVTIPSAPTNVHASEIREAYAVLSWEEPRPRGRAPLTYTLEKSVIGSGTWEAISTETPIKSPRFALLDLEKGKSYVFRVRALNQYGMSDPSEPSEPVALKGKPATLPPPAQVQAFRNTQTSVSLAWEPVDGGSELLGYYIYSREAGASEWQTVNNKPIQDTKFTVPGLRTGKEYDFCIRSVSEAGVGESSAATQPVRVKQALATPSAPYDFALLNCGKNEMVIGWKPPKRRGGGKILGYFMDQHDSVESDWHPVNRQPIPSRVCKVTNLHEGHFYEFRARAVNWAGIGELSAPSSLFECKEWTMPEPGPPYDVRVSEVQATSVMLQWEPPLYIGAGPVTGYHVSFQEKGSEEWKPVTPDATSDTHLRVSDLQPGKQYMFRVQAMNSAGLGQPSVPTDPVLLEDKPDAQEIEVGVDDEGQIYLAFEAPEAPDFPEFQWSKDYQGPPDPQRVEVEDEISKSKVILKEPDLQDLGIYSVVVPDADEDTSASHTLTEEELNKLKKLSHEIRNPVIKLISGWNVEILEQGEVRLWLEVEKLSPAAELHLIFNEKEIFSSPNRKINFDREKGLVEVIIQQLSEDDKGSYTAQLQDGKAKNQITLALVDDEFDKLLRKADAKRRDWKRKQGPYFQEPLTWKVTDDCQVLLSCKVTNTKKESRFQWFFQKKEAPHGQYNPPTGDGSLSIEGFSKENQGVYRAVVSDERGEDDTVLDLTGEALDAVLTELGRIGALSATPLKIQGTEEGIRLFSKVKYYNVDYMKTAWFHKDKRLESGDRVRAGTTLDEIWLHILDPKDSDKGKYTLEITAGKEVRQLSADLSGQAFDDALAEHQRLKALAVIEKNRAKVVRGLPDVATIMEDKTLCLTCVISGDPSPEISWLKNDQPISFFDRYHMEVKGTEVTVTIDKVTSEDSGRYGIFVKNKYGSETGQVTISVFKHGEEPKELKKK
UniProt P11142: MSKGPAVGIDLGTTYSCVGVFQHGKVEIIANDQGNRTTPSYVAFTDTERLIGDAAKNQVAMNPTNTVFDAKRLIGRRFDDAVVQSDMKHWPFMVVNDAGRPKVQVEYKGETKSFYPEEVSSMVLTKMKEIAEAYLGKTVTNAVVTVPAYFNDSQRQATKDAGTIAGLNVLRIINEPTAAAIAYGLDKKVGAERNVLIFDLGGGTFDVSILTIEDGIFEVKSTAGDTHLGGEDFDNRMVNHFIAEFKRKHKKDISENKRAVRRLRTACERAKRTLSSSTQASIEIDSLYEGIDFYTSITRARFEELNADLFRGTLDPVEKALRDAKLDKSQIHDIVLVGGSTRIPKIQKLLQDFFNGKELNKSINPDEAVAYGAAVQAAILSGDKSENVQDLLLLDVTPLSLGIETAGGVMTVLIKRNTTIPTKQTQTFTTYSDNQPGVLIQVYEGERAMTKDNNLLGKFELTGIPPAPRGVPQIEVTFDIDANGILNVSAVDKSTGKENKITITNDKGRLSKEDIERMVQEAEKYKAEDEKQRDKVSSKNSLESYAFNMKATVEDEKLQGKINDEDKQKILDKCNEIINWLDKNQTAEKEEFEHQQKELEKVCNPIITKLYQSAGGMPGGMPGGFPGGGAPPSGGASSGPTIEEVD
UniProt Q14739: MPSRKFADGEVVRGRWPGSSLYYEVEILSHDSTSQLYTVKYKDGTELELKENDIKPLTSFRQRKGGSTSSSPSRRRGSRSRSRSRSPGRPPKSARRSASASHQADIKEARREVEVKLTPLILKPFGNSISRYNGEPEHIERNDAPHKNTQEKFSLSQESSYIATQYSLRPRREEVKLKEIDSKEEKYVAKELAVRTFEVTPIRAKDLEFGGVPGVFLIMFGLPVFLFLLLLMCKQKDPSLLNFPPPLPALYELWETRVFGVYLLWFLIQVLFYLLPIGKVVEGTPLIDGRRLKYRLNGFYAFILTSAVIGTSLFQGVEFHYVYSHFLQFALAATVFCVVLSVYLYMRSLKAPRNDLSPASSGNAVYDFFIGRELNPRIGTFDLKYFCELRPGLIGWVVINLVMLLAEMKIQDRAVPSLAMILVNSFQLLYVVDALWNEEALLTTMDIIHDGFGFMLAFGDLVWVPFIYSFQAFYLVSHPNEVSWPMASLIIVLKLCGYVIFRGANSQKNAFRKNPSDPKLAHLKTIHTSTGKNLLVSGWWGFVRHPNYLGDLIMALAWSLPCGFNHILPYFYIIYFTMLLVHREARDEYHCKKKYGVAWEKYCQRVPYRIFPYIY
UniProt P68104: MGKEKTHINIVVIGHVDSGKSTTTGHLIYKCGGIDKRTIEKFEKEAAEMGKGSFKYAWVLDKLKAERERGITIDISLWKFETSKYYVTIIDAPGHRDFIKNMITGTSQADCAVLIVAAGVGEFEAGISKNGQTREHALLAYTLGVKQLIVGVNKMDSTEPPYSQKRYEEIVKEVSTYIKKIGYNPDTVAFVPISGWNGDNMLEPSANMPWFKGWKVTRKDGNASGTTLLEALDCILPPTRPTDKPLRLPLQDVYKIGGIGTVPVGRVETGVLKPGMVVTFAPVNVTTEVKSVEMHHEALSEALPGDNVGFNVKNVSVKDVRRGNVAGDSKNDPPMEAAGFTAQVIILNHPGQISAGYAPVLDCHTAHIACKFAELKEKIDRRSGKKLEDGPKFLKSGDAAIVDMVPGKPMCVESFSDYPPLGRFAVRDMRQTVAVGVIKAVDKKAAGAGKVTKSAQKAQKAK
UniProt P14211, residues 18-416: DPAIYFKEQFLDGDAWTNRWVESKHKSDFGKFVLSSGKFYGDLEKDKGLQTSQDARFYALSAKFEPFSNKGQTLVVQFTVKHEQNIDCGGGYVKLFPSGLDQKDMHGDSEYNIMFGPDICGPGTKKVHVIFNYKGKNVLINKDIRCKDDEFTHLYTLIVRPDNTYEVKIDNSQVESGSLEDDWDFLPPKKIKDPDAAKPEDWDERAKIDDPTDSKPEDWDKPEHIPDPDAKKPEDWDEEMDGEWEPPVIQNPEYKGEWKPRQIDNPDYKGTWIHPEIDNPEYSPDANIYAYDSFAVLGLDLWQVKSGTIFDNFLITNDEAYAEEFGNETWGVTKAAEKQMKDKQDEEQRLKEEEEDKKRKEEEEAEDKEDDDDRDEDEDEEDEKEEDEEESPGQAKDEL

Results are given in words; binding and its absence hold for the method and conditions named. Binding seen in cells or lysates may run through a third protein. Here binding means that the protein was enriched with, or labelled near, the bait; the list need not be complete.

The chains are these.
T1: Huntingtin Yeast Two-Hybrid Protein K, recombinant 6HN-HYPK (UniProt Q9NX55)
T1 sequence: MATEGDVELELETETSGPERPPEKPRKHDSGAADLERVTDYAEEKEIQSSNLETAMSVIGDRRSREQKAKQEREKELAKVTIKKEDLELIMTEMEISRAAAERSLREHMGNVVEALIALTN

B1: NEDD4 binding protein 1 (protein, UniProt Q6A037 1-893)
chain: MAARVVLDEFTAPAEKAALLERSRGRIEALFGVGLAVLGALGAEEPLPARIWLQLRGAQEAVHSAKEYIKGICEPELEEKECYPKAMHCIFVGAQSLFLKSLIQDTCADLCVLDTGLLGIRGSAEAVVMARSHIQQFVKLFESNENLPSNQRESEIKREFRQFVEAHADSYTMDLLILPTSLKKELLSLTQGEESLFETDDDVITVGDVRPPEYTQSAATGPSSARDEVVVQEDSRNKARTPVSELTKHMDTVFSSSPDVLFVPVNGLSPDEDALSKDRVCHKRRSSDTEERHTKKQFSLENVPEGELLPDGKGSAGNEVIDLSDPASNSTNLSPDGKDTTEEMEYNILVNFFKTMGYSQEIVEKVIREYGPSTEPLLLLEEIEKENKRLQEDRDFPPCTVYPDASQSRNAGVGSTTNELTADSTPKKAQSHTEQSMVERFSQLPFKDSKHCTSNCKVNSFRTVPVGQKQEIWGSKQNSSCTVDLETDGHSASAASASPKDISFVSRGASGHQQRNPAFPENGFQQQTEPLLPNNTKPACEKRSGSCSSPQPKPNYPPLSPPLPLPQLLPSVTEARLGGSSDHIDSSVTGVQRFRDTLKIPYKLELKNEPGRADLKHIVIDGSNVAITHGLKKFFSCRGIAIAVEYFWKLGNRNITVFVPQWRTRRDPNITEQHFLTQLQELGILSLTPARMVFGERIASHDDRFLLHLADKTGGIIVTNDNFREFVTESVSWREIITKRLLQYTFVGDIFMVPDDPLGRNGPRLEEFLRKEAFLRHMQPLLNALPSVGTFDPGFRSPSTQVANNSHQPPPRIQTSSSPWLPQQSHFTALATLPSMQQNPPLPAQRSSAETSELREALLKIFPDSEQKLKIDQILAAHPYMKDLNALSALVLD
B2: Serrate RNA effector molecule homolog (Arabidopsis) (protein, UniProt Q99MR6 1-875)
chain: MGDSDDEYDRRRRDKFRRERSDYDRSRERDERRRGDDWNDREWDRGRERRSRGEYRDYDRNRRERFSPPRHELSPPQKRMRRDWDEHSSDPYHSGYDMPYAGGGGGPTYGPPQPWGHPDVHIMQHHVLPIQARLGSIAEIDLGVPPPIMKSFKEFLLSLDDSVDETEAVKRYNDYKLDFRRQQMQDFFLAHKDEEWFRSKYHPDEVGKRRQEARGALQNRLKVFLSLMESGWFDNLLLDIDKADAIVKMLDAAVIKMEGGTENDLRILEQEEEEEQAGKTGEASKKEEARAGPALGEGERKANDKDEKKEDGKQAENDSSNDDKTKKSEGDGDKEEKKEEAEKEAKKSKKRNRKQSGDDSFDEGSVSESESESEGGQAEEEKEEAEEALKEKEKPKEEEKEKPKDAAGLECKPRPLHKTCSLFMRNIAPNISRAEIISLCKRYPGFMRVALSEPQPERRFFRRGWVTFDRSVNIKEICWNLQNIRLRECELSPGVNRDLTRRVRNINGITQHKQIVRNDIKLAAKLIHTLDDRTQLWASEPGTPPVPTSLPSQNPILKNITDYLIEEVSAEEEELLGSSGGPPPEEPPKEGNPAEINVERDEKLIKVLDKLLLYLRIVHSLDYYNTCEYPNEDEMPNRCGIIHVRGPMPPNRISHGEVLEWQKTFEEKLTPLLSVRESLSEEEAQKMGRKDPEQEVEKFVTSNTQELGKDKWLCPLSGKKFKGPEFVRKHIFNKHAEKIEEVKKEVAFFNNFLTDAKRPALPEIKPAQPPGPAQILPPGLTPGLPYPHQTPQGLMPYGQPRPPILGYGAGAVRPAVPTGGPPYPHAPYGAGRGNYDAFRGQGGYPGKPRNRMVRGDPRAIVEYRDLDAPDDVDFF
B3: Zinc finger protein 516 (protein, UniProt Q7TSH3 1-1157)
chain: MDRSREAEMELRRGPSPPRAGRSHEVDGDKAACHSCCICGKSFPFQSSLSQHMRKHTGEKPYKCPYCDHRASQKGNLKIHIRSHRTGTLIQGHEPEAGEAQLGEMRVSEGLDGCASPTKSTSACNRVLNGAVPMDGSKILLRSSRKEVEGAASAQEDTEATVPCSFCKSRFERKKDLELHVHQAHKPFKCRLCSYVTLREESLLSHIERDHITAQVPNGSEACVENGKPELSPGEFPCEVCGQAFSQTWFLKAHMKKHRGSFDHGCHICGRRFKEPWFLKNHMKAHGPKAGSKNRPKSELDPIATINNVVQEEVIVAGLSLYEVCTKCGNLFTNLDSLNAHNAIHRKVEASRIRAPAEEGDSEDPLDTKQFFLQCLNLTPYVAGDVSPGGQAGRRVAELDPVNSYQAWQLATRGKVAEPAEYLKYGTWDEALAGDVAFDKDKREYILVSQEKRKREQDAPATQAPPRKRASVPGDPMLSGHLDPRPTSRPNRRASATTGQGKSSECFECGKIFRTYHQMVLHSRVHRRARRDRDPEGDRAARARCGSLSEGDSASQPSSPGSACAIADSPGLAEEVVDDSGEEAVPEPASGGQPRHCCSSGEVTPTALSNGDQNHKLGNNLPEKDISEPKVGSAMPSVSILENSSRETTKGPEQHRYSLDLKMPAFHPKQEVPSTTDRVDFPASMEITSLQHTLDSQAGHSKEKLSDLHKEHCGVGKRASAPDLVPLDLSMRSSRDEPSGKEACSLQAALVIHPCPYCTHKTYYPEVLWMHKRIWHRVSCSSVAPPWTQPSGHKSIRSNLVFLTRSGRTGPPPALGGKECQPLLLSRFARTQVPGGAPGSKGSSSPLGVTTKAASMPKNKESHSGGPCALWASGPDGYRQTRAGHGQEPPSAAVQGPLAKPKQEGSSRLAPSPGSGSLSRSTTPTPSVITRVGAQPSANSKPVEKLGGPAVGTGFTPPNKHSAPDSLKAKFSPQPQGQPPLKGEGGSPLPPREPSVKAAQELRTLATCAAGSRGEAALQAPPGAPPTLNSAKQEPAAEGQEKRLDILSIFKTYIPKDFATLYQGWGVSSPGPEHRGTSLTGTPRTQAHQGDFVCVECGKSFHQPSQLRAHLRAHTVVFECDGPRDSEVHTASTDAPKQGRDHTTPGTVPAGPLRKGI
B4: Archain 1 (protein, UniProt P48444 1-511)
chain: MVLLAAAVCTKAGKAIVSRQFVEMTRTRIEGLLAAFPKLMNTGKQHTFVETESVRYVYQPMEKLYMVLITTKNSNILEDLETLRLFSRVIPEYCRALEENEISEHCFDLIFAFDEIVALGYRENVNLAQIRTFTEMDSHEEKVFRAVRETQEREAKAEMRRKAKELQQARRDAERQGKKAPGFGGFGSSAVSGGSTAAMITETIIETDKPKVAPAPARPSGPSKALKLGAKGKEVDNFVDKLKSEGETIMSSSMGKRTSEATKMHAPPINMESVHMKIEEKITLTCGRDGGLQNMELHGMIMLRISDDKYGRIRLHVENEDKKGVQLQTHPNVDKKLFTAESLIGLKNPEKSFPVNSDVGVLKWRLQTTEESFIPLTINCWPSESGNGCDVNIEYELQEDNLELNDVVITIPLPSGVGAPVIGEIDGEYRHDSRRNTLEWCLPVIDAKNKSGSLEFSIAGQPNDFFPVQVSFVSKKNYCNIQVTKVTQVDGNSPVRFSTETTFLVDKYEIL
B5: IKBKB interacting protein (protein, UniProt Q70UQ0 1-350)
chain: MSEVKSRKKSGPKGAPAAEPGKRSEGGKTPVARSSGGGGWADPRTCLSLLSLGTCLGLAWFVFQQSEKFAKVENQYQLLKLETNEFQQLQSKISLISEKWQKSEAIMEQLKSFQIIAHLKRLQEEINEVKTWSNRITEKQDILNNSLTTLSQDITKVDQSTTSMAKDVGLKITSVKTDIRRISGLVTDVISLTDSVQELENKIEKVEKNTVKNIGDLLSSSIDRTATLRKTASENSQRINSVKKTLTELKSDFDKHTDRFLSLEGDRAKVLKTVTFANDLKPKVYNLKKDFSRLEPLVNDLTLRIGRLVTDLLQREKEIAFLSEKISNLTIVQAEIKDIKDEIAHISDMN
B6: Phosphoglycerate mutase 1 (brain) (protein, UniProt Q9DBJ1 1-254)
chain: MAAYKLVLIRHGESAWNLENRFSGWYDADLSPAGHEEAKRGGQALRDAGYEFDICFTSVQKRAIRTLWTVLDAIDQMWLPVVRTWRLNERHYGGLTGLNKAETAAKHGEAQVKIWRRSYDVPPPPMEPDHPFYSNISKDRRYADLTEDQLPSCESLKDTIARALPFWNEEIVPQIKEGKRVLIAAHGNSLRGIVKHLEGLSEEAIMELNLPTGIPIVYELDKNLKPIKPMQFLGDEETVRKAMEAVAAQGKVKK

This assay concerns the target T1, Huntingtin Yeast Two-Hybrid Protein K, recombinant 6HN-HYPK. The assay can be described thus: affinity purification with mass spectrometry; 200 µg purified 6HN-HYPK bound to a Ni-NTA column as bait; ~800 µg soluble cell lysate (HeLa, Neuro2A, STHdhQ7/HdhQ7 or STHdhQ111/HdhQ111) as prey overnight; washed with 50 mM Tris pH 8.0, 150 mM NaCl, 1.0% NP-40; eluted with 300 mM imidazole; 1D or 2D SDS-PAGE, unique bands or spots by MALDI-TOF/TOF; only the target purified.
In the case of “Non-metastatic cells 2, protein (NM23B) (from UniProt Q01768 1-152)”, the binding entry was “binds”.
Consider “Glutamate dehydrogenase 1 (from UniProt P26443 54-558)”, for which the binding result is given as “binds”.
The entry for “Centrosomal protein 290 kDa (from UniProt Q6A078 1-2472)” is “binds”; for “Kinesin family member 20B (from UniProt Q80WE4 1-1774)” it is “binds”; for “Myomesin family, member 3 (from UniProt A2ABU4 1-1439)” it is “binds”.
The entry for “Glutamate dehydrogenase 2 (mouse (endogenous in Neuro2A))” is “binds”.
As for “Zinc finger protein 100 (mouse (endogenous in Neuro2A))”, the entry is “binds”; as for “Heat shock 70kDa protein 8 (HeLa) (from UniProt P11142 1-646)”, “binds”; as for “Lamin B receptor (from UniProt Q14739 1-615)”, “binds”.
For “Eukaryotic translation elongation factor 1 alpha 1 (HeLa) (from UniProt P68104 1-462)”, the binding result was “binds”.
As to “Calreticulin (from UniProt P14211 18-416)”, the binding result is recorded as “binds”.
The entry for “Leukocyte receptor cluster (LRC) member 8 (from UniProt Q96PV6 1-800)” is “binds”; for “Zinc finger protein 462 (from UniProt B1AWL2 1-2495)” it is “binds”; for B1 it is “binds”.
As for B2, the entry is “binds”; as for B3, “binds”.
As to B4, the binding entry was “binds”.
As for B5, the binding result was “binds”.
Take B6: the binding result is “binds”.
